The values that follow come from paper PMC11988436.

Protein sequences, listed by entry. Tags and fused reporters are not part of them.
UniProt Q6R891: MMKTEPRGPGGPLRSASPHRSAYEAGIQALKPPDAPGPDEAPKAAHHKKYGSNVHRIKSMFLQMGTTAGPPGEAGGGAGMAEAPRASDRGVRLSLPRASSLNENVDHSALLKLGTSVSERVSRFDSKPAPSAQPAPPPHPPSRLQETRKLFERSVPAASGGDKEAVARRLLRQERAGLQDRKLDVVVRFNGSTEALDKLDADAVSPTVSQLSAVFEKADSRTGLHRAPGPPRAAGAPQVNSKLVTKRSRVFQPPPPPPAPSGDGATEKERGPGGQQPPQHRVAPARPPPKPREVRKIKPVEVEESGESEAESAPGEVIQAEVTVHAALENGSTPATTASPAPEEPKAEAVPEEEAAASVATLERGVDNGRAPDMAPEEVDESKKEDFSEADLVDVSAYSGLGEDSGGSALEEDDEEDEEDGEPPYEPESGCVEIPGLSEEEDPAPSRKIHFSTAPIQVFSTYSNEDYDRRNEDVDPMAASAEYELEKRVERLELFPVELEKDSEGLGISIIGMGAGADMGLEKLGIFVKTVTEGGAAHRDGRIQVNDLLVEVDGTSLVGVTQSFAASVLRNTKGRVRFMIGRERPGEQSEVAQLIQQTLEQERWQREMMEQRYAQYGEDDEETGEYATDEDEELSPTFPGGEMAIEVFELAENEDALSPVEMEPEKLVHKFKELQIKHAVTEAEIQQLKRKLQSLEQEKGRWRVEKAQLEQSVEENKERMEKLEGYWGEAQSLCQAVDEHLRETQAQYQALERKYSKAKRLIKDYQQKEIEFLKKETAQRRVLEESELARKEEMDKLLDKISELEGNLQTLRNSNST

The target in the experiment is T1, E3 ubiquitin ligase PRAJA1 (mouse (endogenous in hippocampal CA1 tissue)) (UniProt O55176).
T1 sequence: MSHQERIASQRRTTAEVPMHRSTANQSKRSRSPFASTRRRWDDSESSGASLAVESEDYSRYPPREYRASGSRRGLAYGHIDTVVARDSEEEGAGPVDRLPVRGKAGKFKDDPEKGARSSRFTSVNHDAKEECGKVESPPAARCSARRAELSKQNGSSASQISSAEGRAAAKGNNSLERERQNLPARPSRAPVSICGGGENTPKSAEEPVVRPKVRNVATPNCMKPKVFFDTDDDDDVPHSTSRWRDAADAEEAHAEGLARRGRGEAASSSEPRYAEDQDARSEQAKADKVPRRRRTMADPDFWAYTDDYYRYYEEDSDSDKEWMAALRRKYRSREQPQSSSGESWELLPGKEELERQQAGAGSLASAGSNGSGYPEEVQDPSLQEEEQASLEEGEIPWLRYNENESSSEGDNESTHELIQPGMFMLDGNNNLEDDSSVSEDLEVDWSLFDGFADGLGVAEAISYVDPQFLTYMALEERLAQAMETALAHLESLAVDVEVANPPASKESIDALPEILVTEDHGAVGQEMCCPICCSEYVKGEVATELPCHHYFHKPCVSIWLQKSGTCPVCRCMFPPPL
Briefly: affinity purification with mass spectrometry; co-immunoprecipitation with the PRAJA1 antibody from mouse CA1 lysate, trypsin digest, TIMS-TOF Pro mass spectrometry, search against SwissProt Mus musculus.

Results are given in words; binding and its absence hold for the method and conditions named. In cells and extracts the contact can be indirect. A yes stands for co-enrichment or nearness to the bait. Other partners may have been found.

“spinophilin (neurabin 2) (from UniProt Q6R891 1-817)”: the binding result is reported as “binds”.
